These are yes or no findings as the source states them, for the method shown. In cells and extracts the contact can be indirect. A result given as binding can be weak or reduced; the word gives no strength.

By UniProt entry, the sequences of proteins in these tests, tags left out. Where a name states a change or a piece, a line headed by the entry shows the natural chain unless it says otherwise.
UniProt O15169: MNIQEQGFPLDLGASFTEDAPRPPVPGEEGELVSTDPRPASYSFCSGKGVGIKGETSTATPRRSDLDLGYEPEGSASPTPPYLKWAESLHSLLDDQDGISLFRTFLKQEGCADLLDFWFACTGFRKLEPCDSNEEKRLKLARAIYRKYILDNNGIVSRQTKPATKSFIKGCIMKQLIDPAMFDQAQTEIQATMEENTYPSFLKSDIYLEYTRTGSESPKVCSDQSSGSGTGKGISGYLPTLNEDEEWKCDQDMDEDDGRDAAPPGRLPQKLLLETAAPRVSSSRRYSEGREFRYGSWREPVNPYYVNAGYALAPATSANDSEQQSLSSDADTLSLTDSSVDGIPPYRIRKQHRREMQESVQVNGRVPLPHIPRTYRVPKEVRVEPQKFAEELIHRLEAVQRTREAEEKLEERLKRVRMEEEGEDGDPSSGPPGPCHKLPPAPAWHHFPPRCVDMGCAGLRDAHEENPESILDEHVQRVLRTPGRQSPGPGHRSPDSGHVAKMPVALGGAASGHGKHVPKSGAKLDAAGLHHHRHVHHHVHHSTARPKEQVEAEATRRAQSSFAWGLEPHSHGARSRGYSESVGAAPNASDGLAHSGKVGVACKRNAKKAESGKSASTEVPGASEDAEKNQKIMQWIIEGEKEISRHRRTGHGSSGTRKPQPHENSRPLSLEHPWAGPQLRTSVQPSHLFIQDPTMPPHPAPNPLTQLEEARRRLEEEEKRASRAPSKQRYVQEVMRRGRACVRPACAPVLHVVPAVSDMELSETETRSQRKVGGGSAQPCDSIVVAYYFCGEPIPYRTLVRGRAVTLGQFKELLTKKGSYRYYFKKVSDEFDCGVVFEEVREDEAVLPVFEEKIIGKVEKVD
UniProt P09874: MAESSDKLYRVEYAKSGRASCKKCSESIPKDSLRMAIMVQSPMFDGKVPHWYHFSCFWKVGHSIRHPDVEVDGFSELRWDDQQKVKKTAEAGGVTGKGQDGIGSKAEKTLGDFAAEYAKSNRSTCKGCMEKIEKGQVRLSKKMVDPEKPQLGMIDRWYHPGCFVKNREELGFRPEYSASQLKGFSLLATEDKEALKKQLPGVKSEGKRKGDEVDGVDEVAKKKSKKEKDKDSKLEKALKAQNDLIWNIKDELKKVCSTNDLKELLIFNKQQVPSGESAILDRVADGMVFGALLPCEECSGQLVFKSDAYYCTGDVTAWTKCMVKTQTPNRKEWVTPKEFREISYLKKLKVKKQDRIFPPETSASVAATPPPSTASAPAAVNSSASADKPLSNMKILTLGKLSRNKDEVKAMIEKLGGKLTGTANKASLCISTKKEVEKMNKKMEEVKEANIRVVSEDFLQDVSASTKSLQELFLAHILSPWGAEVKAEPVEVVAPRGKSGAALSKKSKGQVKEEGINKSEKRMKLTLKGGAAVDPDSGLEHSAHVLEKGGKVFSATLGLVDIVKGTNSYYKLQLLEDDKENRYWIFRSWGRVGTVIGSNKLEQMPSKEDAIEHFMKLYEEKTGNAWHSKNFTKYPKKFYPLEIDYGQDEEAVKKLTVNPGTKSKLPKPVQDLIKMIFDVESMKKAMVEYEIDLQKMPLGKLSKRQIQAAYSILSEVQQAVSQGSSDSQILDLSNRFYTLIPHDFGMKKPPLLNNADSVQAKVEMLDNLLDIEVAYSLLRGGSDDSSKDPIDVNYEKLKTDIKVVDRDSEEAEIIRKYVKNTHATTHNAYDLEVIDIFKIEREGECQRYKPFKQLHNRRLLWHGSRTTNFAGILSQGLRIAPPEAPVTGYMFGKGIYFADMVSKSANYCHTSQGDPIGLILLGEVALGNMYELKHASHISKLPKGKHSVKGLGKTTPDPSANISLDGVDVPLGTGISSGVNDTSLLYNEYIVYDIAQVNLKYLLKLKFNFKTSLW

The assay deals with flag-tagged AXIN1 (UniProt O15169). Kind of assay: co-IP; immunoprecipitation of flag-AXIN1 from HEK293 cells co-transfected with HA-tagged RNF146, TNKS1 or PARP1 (wildtype or deletion alleles); anti-HA blot, short and long exposure.

Take “HA-tagged PARP1ΔPARP (from UniProt P09874) (domain or fragment)”: the binding result was “no binding”.

As for “HA-tagged RNF146ΔRING (from UniProt Q9NTX7-2) (domain or fragment)”, the binding entry is given as “binds”.

The values are drawn from PMC3143158.
